Laboratory results taken from PubChem BioAssay AID540276 (National Center for Advancing Translational Sciences (NCATS), 2011).
“And” between values parts separate entries of the source, which are not always exact repeats. Equal entries are not always repeated. Among all 300,000 compounds or so, about 5,400 (1.8%) were called active. Inconclusive means that the source gave no clear call. Such entries were picked first, then a sample of the others. The call rests on the fitted dose curve; tested in HEK293 cells. A potency beside an inconclusive call is a rough fit, not a confirmed value.

experiment: qHTS for inhibitors of binding or entry into cells for Marburg Virus; details: Marburg virus pseudotyped entry inhibition, cell reporter; activity change, negative = inhibition: at 37.8 µM (top of the series) unless noted
On the % scale 0 is the no-effect control and ±100 the full control effect; potency means the concentration at half of the fitted maximal effect.

Question: Which Potency does the source give for `Cc1cnc(CNC(=O)C2CCC(=O)N(Cc3ccc(Cl)cc3)C2)[nH]1` (stereo not drawn) here?
Answer: inconclusive: 35.5 µM [activator, single point]

Question: Which Potency does the source give for `O=P(Cc1cc(Br)cc(Br)c1OCCO)(c1ccccc1)c1ccccc1` here?
Answer: inconclusive: 10 µM [inhibitor, partial curve]

Question: With `COc1cccc(Nc2nc3cc(OC)ccc3cc2C#N)c1` as the compound, how does the “activity change, negative = inhibition” value read?
Answer: inactive: 5.66% [at 46.1 µM]

Question: With `Cc1ccc(SCc2cc(=O)[nH]c(Nc3nc(C)c4cccc(C)c4n3)n2)cc1` as the compound, how does the Potency read?
Answer: active: 9.2 µM

Question: For `CCOc1ccc(CN2CCSCC2)cc1`, which “activity change, negative = inhibition” value is on record?
Answer: inactive: 3.77%

Question: For `COCC(=O)n1nc(-c2ccccc2)nc1NCc1ccccc1`, which Potency is on record?
Answer: inconclusive: 3.55 µM [activator, single point]

Question: For `Cc1ccc(S(=O)(=O)N2CCN(C(=O)c3cccs3)CC2)cc1C`, which Potency is on record?
Answer: inconclusive: 12.6 µM [inhibitor, single point]

Question: With `Cc1cc2nc(-c3cccc(NC(=O)c4ccc(Br)o4)c3)oc2cc1C` as the compound, how does the “activity change, negative = inhibition” value read?
Answer: inactive: 7.16%

Question: With `O=C(Nc1cccc(Br)c1)c1ccc(CSc2ccccc2)cc1` as the compound, how does the “activity change, negative = inhibition” value read?
Answer: inactive: 9.89%

Question: For `CC1(C)N=C(N)NC(Nc2cccc(Br)c2)=N1`, which “activity change, negative = inhibition” value is on record?
Answer: inactive: -0.98% [at 46.1 µM]

Question: With `Cc1cc(Sc2ccc([N+](=O)[O-])cn2)ccc1Br` as the compound, how does the Potency read?
Answer: inconclusive: 35.5 µM [inhibitor, single point]

Question: With `COc1cc(/C=C(\NC(=O)c2ccccc2)C(=O)NCCO)c([N+](=O)[O-])cc1OC` as the compound, how does the “activity change, negative = inhibition” value read?
Answer: inactive: 0.203%

Question: With `CC(=O)c1sc(NC(=O)COc2ccc(C(C)C)c(C)c2)nc1C` as the compound, how does the “activity change, negative = inhibition” value read?
Answer: inactive: 23.2% [at 46.1 µM]

Question: Which “activity change, negative = inhibition” value does the source give for `COc1ccc(Cn2c(C)nc3c(c2=O)c2nc4ccccc4nc2n3Cc2ccco2)cc1` here?
Answer: inactive: 8.03%

Question: Which Potency does the source give for `O=c1oc(-c2ccccc2)nc2sc3c(c12)CCCC3` here?
Answer: inconclusive: 16.4 µM [inhibitor, single point]

Question: For `CC(C)(C)c1cc(NC(=O)CSc2nncs2)n(-c2ccccc2)n1`, which Potency is on record?
Answer: inconclusive: 0.447 µM [inhibitor, full curve, poor fit]

Question: With `CCNCCNc1ccc([N+](=O)[O-])c2cccnc12` as the compound, how does the Potency read?
Answer: inconclusive: 35.5 µM [inhibitor, single point]

Question: Which “activity change, negative = inhibition” value does the source give for `CCc1nn(-c2ccccc2)c(=S)c2ccccc12` here?
Answer: inactive: 18.6% [at 46.1 µM]

Question: With `O=C(CCSc1ccc(Cl)cc1)N1CCOCC1` as the compound, how does the Potency read?
Answer: inconclusive: 5.01 µM [activator, partial curve, poor fit]

Question: For `Cc1cc2c(c(=O)n1Cc1ccccn1)C(c1ccc3c(c1)OCO3)C(C#N)=C(N)O2` (stereo not drawn), which Potency is on record?
Answer: inconclusive: 29.1 µM [inhibitor, single point]

Question: Which Potency does the source give for `Cc1cc(C)n(-c2nc(C)nc3c2cnn3-c2ccccc2)n1` here?
Answer: inconclusive: 2.82 µM [activator, single point]

Question: With `CCCCCCn1nc(C(=O)N(CCCC)c2c(N)n(CCC)c(=O)[nH]c2=O)c2ccccc2c1=O` as the compound, how does the Potency read?
Answer: inconclusive: 22.4 µM [inhibitor, single point]

Question: For `NC(=O)C1CCN(Cc2nc(-c3cccs3)no2)CC1`, which “activity change, negative = inhibition” value is on record?
Answer: inactive: -29.2%

Question: With `NC(=S)Cc1ccc(Cl)cc1Cl` as the compound, how does the Potency read?
Answer: inconclusive: 35.5 µM [inhibitor, single point]

Question: Which Potency does the source give for `COCCN1CSC(=S)N(Cc2ccco2)C1` here?
Answer: inconclusive: 13 µM [inhibitor, partial curve]

Question: For `Fc1ccccc1N1CCN(c2ncnc3onc(-c4cccc(Cl)c4)c23)CC1`, which Potency is on record?
Answer: inconclusive: 6.31 µM [inhibitor, single point]

Question: For `COc1ccccc1N1C(=O)C2C(C(=O)c3ccccc3)=NN(c3ccc(C)cc3)C2C1=O` (stereo not drawn), which Potency is on record?
Answer: inconclusive: 15.8 µM [inhibitor, single point]

Question: For `c1ccc(CCCCc2ccncc2)cc1`, which Potency is on record?
Answer: inconclusive: 1 µM [activator, full curve, poor fit]

Question: For `CCOC(=O)CSc1nc2c(sc(=S)n2Cc2ccco2)c(=O)n1-c1ccccc1`, which Potency is on record?
Answer: inconclusive: 20.6 µM [inhibitor, partial curve, poor fit]

Question: With `CCOc1ccc(OCC)c(-n2cnnn2)c1` as the compound, how does the “activity change, negative = inhibition” value read?
Answer: inactive: 9.14% [at 46.1 µM]

Question: For `c1ccc(COc2ccccc2CNCc2cccnc2)cc1`, which Potency is on record?
Answer: inconclusive: 9.2 µM [inhibitor, partial curve]

Question: With `Cc1c(C)c2c(C)[nH]nc2oc1=O` as the compound, how does the “activity change, negative = inhibition” value read?
Answer: inactive: -3.12%

Question: With `COc1cc(C(=O)NNC(=O)C2CC=CCC2C(=O)O)cc(OC)c1OC` (stereo not drawn) as the compound, how does the Potency read?
Answer: inconclusive: 3.66 µM [inhibitor, full curve, poor fit]

Question: Which “activity change, negative = inhibition” value does the source give for `O=C(NCC1CCCO1)c1cc(-c2ccccc2)on1` (stereo not drawn) here?
Answer: inactive: 4.86%

Question: For `O=c1oc2ccccc2cc1NCc1ccccc1O`, which Potency is on record?
Answer: inconclusive: 20.6 µM [activator, single point]

Question: For `COC(=O)c1cc(OC)c(OC)cc1NC(=S)N1CCN(c2ccccc2)CC1`, which Potency is on record?
Answer: inconclusive: 7.3 µM [activator, partial curve, poor fit]

Question: For `CCOc1ccc(Nc2cc(C)nc3ccc(C)cc23)cc1`, which Potency is on record?
Answer: inconclusive: 17.8 µM [inhibitor, partial curve, poor fit]

Question: Which “activity change, negative = inhibition” value does the source give for `Cc1cc(O)c(C(=O)/C=C/c2ccccc2Br)c(=O)o1` here?
Answer: inactive: 13.7% [at 46.1 µM]

Question: With `COc1ccc(C2c3c(ncn(CCN4CCOCC4)c3=N)Oc3ccc4ccccc4c32)cc1` (stereo not drawn) as the compound, how does the Potency read?
Answer: inactive and inconclusive: 35.5 µM [inhibitor, partial curve, poor fit]

Question: Which “activity change, negative = inhibition” value does the source give for `O=C(CSc1ccccc1C(=O)O)c1ccc(Cl)cc1` here?
Answer: inactive: 15.7% [at 46.1 µM]

Question: Which “activity change, negative = inhibition” value does the source give for `CCOC(=O)N1CCN(c2ccccc2O)CC1` here?
Answer: inactive: -5.8%

Question: With `O=C(NCCSCc1c(F)cccc1Cl)c1ccco1` as the compound, how does the “activity change, negative = inhibition” value read?
Answer: inactive: 12.5% [at 46.1 µM]

Question: For `CCOC(=O)c1[nH]c(C)c(C(=O)OCc2ccccc2F)c1C`, which Potency is on record?
Answer: inconclusive: 6.31 µM [inhibitor, single point]

Question: For `COC(=O)c1ccc(/C=C2/C(=O)Oc3ccccc32)cc1`, which Potency is on record?
Answer: inconclusive: 35.5 µM [inhibitor, single point]

Question: Which Potency does the source give for `Cc1cc(O)cc(O)c1C=NCc1ccco1` here?
Answer: inconclusive: 18.4 µM [inhibitor, single point]

Question: Which Potency does the source give for `O=C(OCc1nnc(-c2ccccc2)o1)c1cccc(S(=O)(=O)N2CCOCC2)c1` here?
Answer: inconclusive: 1.41 µM [activator, full curve, poor fit]

Question: For `O=C(O)Cn1c(=O)c2c3c(sc2n(Cc2ccc(F)cc2)c1=O)CCCC3`, which Potency is on record?
Answer: inconclusive: 5.62 µM [inhibitor, single point]

Question: With `O=C(NCc1ccco1)c1nc2nc(-c3cccs3)cc(C(F)(F)F)n2n1` as the compound, how does the Potency read?
Answer: inconclusive: 0.92 µM [inhibitor, full curve, poor fit]
